Data published in US9169463B2, “Stem cell for therapeutic use which is derived from human monocyte, and method for inducing same” (OTSUKA PHARMACEUTICAL CO., LTD., priority 2008, dated 2015).

Test system: peripheral blood monocytes
Assay: Comparison of stem cell-inducing activities of various gangliosides (viable cells, CellTiter-Glo)
Assay type: cell-based, human
Conditions: second week of culture
Procedure: More specifically, gangliosides were added to a culture medium at a final concentration of 100 μg/ml, and peripheral blood monocytes were cultured.
rhM-CSF was added thereto at a final concentration of 25 ng/ml. Then, the number of viable cells in the second week of culture was quantified as luciferase activity using CellTiter-Glo (Promega).

Row | Substance | cell morphology (FIG. 4)
1 | aNeu5Ac(2-3)bDGalp(1-3)bDGalNAc(1-4)[aNeu5Ac(2-3)]bDGalp(1-4)bDGlcp(1-1)Cer [GD1a] | no difference in cell morphology was observed
2 | aNeu5Ac(2-3)bDGalp(1-3)bDGalNAc(1-4)[aNeu5Ac(2-8)aNeu5Ac(2-3)]bDGalp(1-4)bDGlcp(1-1)Cer [GT1b] | no difference in cell morphology was observed
3 | bDGalp(1-3)bDGalNAc[aNeu5Ac(2-3)]bDGalp(1-4)bDGlcp(1-1)Cer [GM1] | no difference in cell morphology was observed

Some compounds share one wording; it may come from a single statement.
